PubChem BioAssay AID1259267 | Sanger Institute, 2017

- Aim: 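Essential and drug-synergistic knock-downs in GP5D bowel cancer cells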 (primary screen)
- Cell system: human GP5D colorectal cancer cells
- Knock-down reagent: siRNA pool against human genes
- Conditions: anchor drugs at low dose: BYL719 1 µM, cetuximab 5 µg/ml, trametinib 10 nM, or DMSO vehicle
- Read-out: 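Mean replicate viability versus non-targeting pool, given as knock-down-alone robust z-score, DMSO fraction, and synergy with low-dose BYL719, cetuximab or trametinib (1 µM, 5 µg/ml, 10 nM)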
- Reading the numbers: robust z-score, knock-down alone: higher = more viable cells
- Rule for the call: 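Active (essential alone) if knock-down without drug gives robust z-score under -3; drug synergy does not count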
- Calls: active = essential alone; inactive = not essential
The whole screen tested 794 reagents; shown is a random part of them. 9 of all reagents (1.1%) count as active. 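Viability capped at 1; calls reflect loss of viability from knock-down alone, not synergy with drugs.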 Not all columns of the deposit are shown. Not given: the amount of reagent, the time to read-out.

Knock-down of NEK5 came out at: robust z-score, knock-down alone 0.564; inactive.
Knock-down of LRRK2 came out at: robust z-score, knock-down alone 0.817; inactive.
PRAG1 showed robust z-score, knock-down alone -1.08; inactive.
PIK3R4 gave robust z-score, knock-down alone -2.08; inactive.
With knock-down of PIK3CD, the screen gave robust z-score, knock-down alone 0.563; inactive.
Against SKAP1, the values are robust z-score, knock-down alone 0.817; inactive.
With knock-down of PIM1, the record shows robust z-score, knock-down alone -0.257; inactive.
Knock-down of TWF2 came out at: robust z-score, knock-down alone -1.84; inactive.

2 entries from above in another layout:
LRRK2
- robust z-score, knock-down alone: 0.817
- outcome: inactive

PRAG1
- robust z-score, knock-down alone: -1.08
- outcome: inactive

The results go on:
After knock-down of GALK2, the screen gave robust z-score, knock-down alone -1.17; inactive.
PRKDC showed robust z-score, knock-down alone -0.17; inactive.
EPHA5 gave robust z-score, knock-down alone 0.817; inactive.
PRKCA gave robust z-score, knock-down alone -1.28; inactive.
